Results are given in words; binding and its absence hold for the method and conditions named. Some results given as binding are weak or reduced against the parent protein; the word gives no strength.

In the experiment the target is adrenomedullin receptors in the lungs of dogs (dog). The experiment can be described thus: competition: displacement of iodine-labelled hAM from dog lungs; rank order.

B1: hAM(13-52) (peptide)
peptide: SFGCRFGTCTVQKLAHQIYQFTDKDKDNVAPRSKISPQGY
modifications: C-terminal amide (Tyr-CONH2)
With B1, the binding entry is “binds”.

B2: hAM(22-52) (peptide)
peptide: TVQKLAHQIYQFTDKDKDNVAPRSKISPQGY
modifications: C-terminal amide (Tyr-CONH2)
Consider B2, for which the binding entry is recorded as “binds”.

The values are drawn from patent US20090028790A1 (INSTITUT DE CARDIOLOGIE DE MONTREAL, published 2009).
